Among the data in paper PMC11471967 are binding values, retold here.

Protein sequences, listed by entry. Tags and fused reporters are not part of them. Lines headed by an entry give the natural chain unless they say otherwise; changes in a name come on top. Residues count along the entry.
UniProt Q04206: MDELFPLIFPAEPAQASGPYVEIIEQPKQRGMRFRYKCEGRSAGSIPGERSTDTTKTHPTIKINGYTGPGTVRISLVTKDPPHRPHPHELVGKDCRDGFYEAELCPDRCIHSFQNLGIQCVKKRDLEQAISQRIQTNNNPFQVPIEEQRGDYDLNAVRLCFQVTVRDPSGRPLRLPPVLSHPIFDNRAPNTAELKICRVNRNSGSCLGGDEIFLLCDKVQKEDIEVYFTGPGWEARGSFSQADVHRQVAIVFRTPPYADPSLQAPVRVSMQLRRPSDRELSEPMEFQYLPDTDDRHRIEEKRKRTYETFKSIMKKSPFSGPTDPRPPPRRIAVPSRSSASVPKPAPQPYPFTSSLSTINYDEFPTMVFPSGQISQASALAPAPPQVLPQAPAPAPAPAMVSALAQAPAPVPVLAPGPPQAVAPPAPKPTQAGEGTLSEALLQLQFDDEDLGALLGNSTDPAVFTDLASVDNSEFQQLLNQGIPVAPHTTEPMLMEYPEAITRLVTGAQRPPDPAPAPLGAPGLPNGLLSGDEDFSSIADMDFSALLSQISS
UniProt P19838, residues 1-433: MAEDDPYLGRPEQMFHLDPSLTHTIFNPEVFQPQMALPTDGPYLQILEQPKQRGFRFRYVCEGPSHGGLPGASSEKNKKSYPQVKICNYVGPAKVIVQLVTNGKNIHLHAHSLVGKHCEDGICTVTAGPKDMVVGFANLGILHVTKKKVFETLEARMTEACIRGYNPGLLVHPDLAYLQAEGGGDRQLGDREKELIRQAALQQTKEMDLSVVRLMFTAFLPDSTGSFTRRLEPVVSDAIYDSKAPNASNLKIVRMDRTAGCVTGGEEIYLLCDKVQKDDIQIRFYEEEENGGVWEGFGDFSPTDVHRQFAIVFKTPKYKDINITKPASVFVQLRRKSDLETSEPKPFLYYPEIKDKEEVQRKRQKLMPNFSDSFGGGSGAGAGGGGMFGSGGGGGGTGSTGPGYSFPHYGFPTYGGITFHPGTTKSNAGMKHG
UniProt P35396: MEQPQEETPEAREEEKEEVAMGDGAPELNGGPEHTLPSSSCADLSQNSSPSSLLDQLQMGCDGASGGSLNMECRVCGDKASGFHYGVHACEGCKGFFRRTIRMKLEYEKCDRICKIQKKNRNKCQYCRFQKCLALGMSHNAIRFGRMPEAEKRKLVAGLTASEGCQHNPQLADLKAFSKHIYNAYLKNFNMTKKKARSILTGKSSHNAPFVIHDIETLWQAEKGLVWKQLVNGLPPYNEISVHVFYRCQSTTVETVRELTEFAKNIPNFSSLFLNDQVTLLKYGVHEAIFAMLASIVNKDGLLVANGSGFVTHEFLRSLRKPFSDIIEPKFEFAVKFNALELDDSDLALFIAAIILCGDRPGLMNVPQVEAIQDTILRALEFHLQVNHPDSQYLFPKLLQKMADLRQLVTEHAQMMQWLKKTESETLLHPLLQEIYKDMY
UniProt Q03181: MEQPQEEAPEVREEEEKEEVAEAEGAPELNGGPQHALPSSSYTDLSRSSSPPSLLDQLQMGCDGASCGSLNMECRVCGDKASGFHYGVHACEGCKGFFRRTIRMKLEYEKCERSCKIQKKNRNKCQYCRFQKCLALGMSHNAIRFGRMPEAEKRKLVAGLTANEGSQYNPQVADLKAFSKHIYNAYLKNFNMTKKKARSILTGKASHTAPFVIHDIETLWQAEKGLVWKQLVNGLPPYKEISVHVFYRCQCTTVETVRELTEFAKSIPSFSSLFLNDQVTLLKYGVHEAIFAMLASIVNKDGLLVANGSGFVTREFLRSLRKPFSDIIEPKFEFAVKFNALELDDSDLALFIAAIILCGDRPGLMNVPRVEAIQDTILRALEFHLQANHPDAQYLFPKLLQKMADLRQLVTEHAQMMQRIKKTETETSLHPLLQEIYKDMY

Results are given in words; binding and its absence hold for the method and conditions named. For part of these data: In cells and extracts the contact can be indirect. Some results given as binding are weak or reduced against the parent protein; the word gives no strength.

The target in assay [1] is RelA (p65), in nuclear extracts of human CTLs (human (endogenous in human CTLs)) (UniProt Q04206). Description: native gel or EMSA; nuclear extracts (5 μg) of human CTLs with NF-κB oligonucleotide, 4% nondenaturing polyacrylamide gel, then transfer and Western blot for RelA, p50 or PPARδ. A general note: Mobility shift assays separate free from complexed probe on a gel.
Assay [2] has the same target. Description: co-IP; nuclear extracts from human or mouse CTLs, diluted in 20 mmol/L HEPES pH 7.5, 150 mmol/L NaCl, 1% Triton X-100, 1 mmol/L EDTA, 10% glycerol; anti-p65 or anti-PPARδ antibody and protein A/G agarose, 4°C overnight; Western blot; cells untreated, treated with GW501516, PPARδ siRNA, PPARδ plasmid, or Ppard−/−. Background: A western blot detects proteins with antibodies after separation by electrophoresis.

In assay [3] the target is RelA (p65), in nuclear extracts of mouse CTLs (mouse (endogenous in murine CTLs)) (UniProt Q04207). The description is as above.
Assay [4] addresses GST-tagged NF-κB1 p50 protein (UniProt P19838). Description: pull-down; GST-tagged p50 incubated with p65 or PPARδ or both in coimmunoprecipitation buffer with Glutathione Sepharose 4B, 4°C, 3 hours; Western blot; both purified.
Assay [5] deals with T1, RelA (p65), in nuclear extracts of mouse CTLs (mouse (endogenous in murine CTLs)), Q04207.
T1 chain: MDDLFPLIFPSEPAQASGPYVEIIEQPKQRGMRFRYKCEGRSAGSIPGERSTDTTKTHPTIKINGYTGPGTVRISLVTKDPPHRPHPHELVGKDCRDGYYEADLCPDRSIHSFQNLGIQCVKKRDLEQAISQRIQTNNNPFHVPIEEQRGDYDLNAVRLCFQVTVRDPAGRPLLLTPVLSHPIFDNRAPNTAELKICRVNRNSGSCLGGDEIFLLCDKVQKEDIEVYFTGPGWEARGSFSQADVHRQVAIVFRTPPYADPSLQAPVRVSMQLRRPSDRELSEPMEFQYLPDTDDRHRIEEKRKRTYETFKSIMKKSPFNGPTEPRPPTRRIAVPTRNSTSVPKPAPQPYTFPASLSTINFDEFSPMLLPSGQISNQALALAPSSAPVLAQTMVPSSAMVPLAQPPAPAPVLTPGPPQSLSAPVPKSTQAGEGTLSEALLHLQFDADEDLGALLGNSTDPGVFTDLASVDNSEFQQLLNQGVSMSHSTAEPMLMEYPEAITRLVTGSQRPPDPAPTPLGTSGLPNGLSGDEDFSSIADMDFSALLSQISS
Description: co-IP; nuclear extracts from human or mouse CTLs, diluted in 20 mmol/L HEPES pH 7.5, 150 mmol/L NaCl, 1% Triton X-100, 1 mmol/L EDTA, 10% glycerol; anti-p65 or anti-PPARδ antibody and protein A/G agarose, 4°C overnight; Western blot; cells untreated, treated with GW501516, PPARδ siRNA, PPARδ plasmid, or Ppard−/−. The conditions noted are these: remark: other sources report otherwise.

For “NF-κB1/p50, in nuclear extracts of human CTLs (from UniProt P19838 1-433)”, the binding result in assay [1] and in assay [2] was “binds” throughout.
Consider “PPARδ, in nuclear extracts of mouse CTLs (from UniProt P35396 1-440)”, for which the binding entry in assay [3] is “binds”.
For “purified PPARδ (from UniProt Q03181 1-441)”, in assay [4], the binding entry is given as “no binding”.
As for “purified p65 (RelA) (from UniProt Q04206 1-551)”, the binding result in assay [4] is “binds”.

B1: NF-κB1/p50, in nuclear extracts of mouse CTLs, P25799 1-431 (protein)
chain: MADDDPYGTGQMFHLNTALTHSIFNAELYSPEIPLSTDGPYLQILEQPKQRGFRFRYVCEGPSHGGLPGASSEKNKKSYPQVKICNYVGPAKVIVQLVTNGKNIHLHAHSLVGKHCEDGVCTVTAGPKDMVVGFANLGILHVTKKKVFETLEARMTEACIRGYNPGLLVHSDLAYLQAEGGGDRQLTDREKEIIRQAAVQQTKEMDLSVVRLMFTAFLPDSTGSFTRRLEPVVSDAIYDSKAPNASNLKIVRMDRTAGCVTGGEEIYLLCDKVQKDDIQIRFYEEEENGGVWEGFGDFSPTDVHRQFAIVFKTPKYKDVNITKPASVFVQLRRKSDLETSEPKPFLYYPEIKDKEEVQRKRQKLMPNFSDSFGGGSGAGAGGGGMFGSGGGGGSTGSPGPGYGYSNYGFPPYGGITFHPGVTKSNAGVTHG
Consider B1, for which the binding result in assay [5] was “binds”.
